Laboratory results published in paper PMC6761150.
For at least one entry, the source does not settle the construct or the ends of the probe. At least one result comes from cells or an extract, where the contact may be indirect. For some assays here: At least one verdict was read from the data and is not stated in words by the source. Where a protein sequence is shown, tags need not be part of it.

Key:
[1] = biological target: T1, Stat6 (IL-4-activated, nuclear extract of Trim24-deficient macrophages) (Mus musculus) (UniProt P52633); assay: EMSA; conditions: IL-4 20 ng/mL, 1 h, Trim24-deficient macrophages, binding increased vs WT; EMSA buffer, pH and temperature not given; nuclear extracts of peritoneal macrophages, IL-4 20 ng/mL for 1 h, 32P probes; protein in an extract; label: 32P
T1 sequence (looked up, limits assumed): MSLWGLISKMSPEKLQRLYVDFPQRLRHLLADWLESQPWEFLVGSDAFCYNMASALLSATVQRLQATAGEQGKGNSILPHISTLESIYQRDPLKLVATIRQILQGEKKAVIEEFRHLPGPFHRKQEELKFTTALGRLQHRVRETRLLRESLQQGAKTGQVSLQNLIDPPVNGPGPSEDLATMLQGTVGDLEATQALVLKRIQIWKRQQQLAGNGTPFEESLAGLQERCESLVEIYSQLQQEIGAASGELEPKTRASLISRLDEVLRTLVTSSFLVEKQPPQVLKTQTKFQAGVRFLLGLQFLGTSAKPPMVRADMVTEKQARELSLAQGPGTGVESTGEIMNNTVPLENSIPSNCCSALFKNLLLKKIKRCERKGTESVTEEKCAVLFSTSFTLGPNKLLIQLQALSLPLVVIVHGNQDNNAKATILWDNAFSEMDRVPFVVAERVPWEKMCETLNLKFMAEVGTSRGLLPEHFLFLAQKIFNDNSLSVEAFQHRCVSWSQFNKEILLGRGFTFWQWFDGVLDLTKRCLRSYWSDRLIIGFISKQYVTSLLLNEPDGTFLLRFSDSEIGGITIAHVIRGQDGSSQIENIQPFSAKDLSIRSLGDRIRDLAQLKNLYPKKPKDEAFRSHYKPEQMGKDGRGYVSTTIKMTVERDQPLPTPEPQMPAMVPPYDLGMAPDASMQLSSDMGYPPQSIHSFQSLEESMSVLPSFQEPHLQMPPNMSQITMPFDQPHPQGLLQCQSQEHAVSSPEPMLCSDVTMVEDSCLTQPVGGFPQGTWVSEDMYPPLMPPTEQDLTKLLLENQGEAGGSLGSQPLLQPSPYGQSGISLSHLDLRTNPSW

[2] = biological target: T2, Stat6 (IL-4-activated, nuclear extract of WT peritoneal macrophages) (Mus musculus) (UniProt P52633); assay: EMSA; conditions: IL-4 20 ng/mL, 1 h, WT macrophages; EMSA buffer, pH and temperature not given; nuclear extracts of peritoneal macrophages, IL-4 20 ng/mL for 1 h, 32P probes; protein in an extract; label: 32P
T2 sequence (looked up, limits assumed): T1 sequence (looked up, limits assumed)

**Q.** Does “ATGCTTTCTTATGAACAGGCTG (double strand) [Stat6 WT probe]” bind [1]?
**A.** Result: binds

**Q.** Does “ATGCTTTCTTATGAACAGGCTG (double strand) [Stat6 WT probe]” bind [2]?
**A.** Result: binds
